Measurements reported in PubChem BioAssay AID1259308 (NCATS, 2017)

Assay: 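Genes whose loss raises luciferase production in HEK293 cells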 (primary screen)
Cells: human HEK293 embryonic kidney cells stably expressing firefly luciferase (HEK-CMV-Luc2-Hygro)
Reagents: single siRNA against human genes, 0.8 pmol siRNA per well
Duration: 72 h
Read-out: 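Reporter luminescence and viable-cell signal on separate replicate plates, given as percent of non-targeting control and median/MAD z-scores, plus per-cell luciferase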
Reading the numbers: total luciferase, z-score and total luciferase, % of control: higher = more reporter protein produced; luciferase per cell, z-score: higher = more reporter output per viable cell; viable cells, % of control: higher = more viable cells
Active means: 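An siRNA counts as active if its total luciferase robust z-score exceeds 3; genes with two or more such siRNAs out of three were retested with fresh siRNAs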
Meaning of the calls: active = raised luciferase; inactive = no rise
Here is an unselected part of about 59,000 deposited reagents. Over the whole deposit, about 1,510 (2.6%) were called active. 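Calls use total luciferase alone and ignore viability, so some active siRNAs may act by altering cell number.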

| Gene | PubChem SID | total luciferase, z-score | total luciferase, % of control | luciferase per cell, z-score | viable cells, % of control | Call |
| --- | --- | --- | --- | --- | --- | --- |
| C12orf42 (chromosome 12 open reading frame 42) | SID160765282 | 0.184 | 85.6 | 0.0459 | 94.5 | inactive |
| C12orf42 (chromosome 12 open reading frame 42) | SID160765284 | -0.205 | 77.8 | -0.343 | 95.2 | inactive |
| C12orf42 (chromosome 12 open reading frame 42) | SID160765285 | -0.694 | 68.1 | -0.548 | 87.9 | inactive |
| C8orf44 (chromosome 8 putative open reading frame 44) | SID160733640 | -0.187 | 78.2 | -0.12 | 90.1 | inactive |
| C8orf44 (chromosome 8 putative open reading frame 44) | SID160744988 | 0.149 | 84.9 | -0.588 | 111 | inactive |
| C8orf44 (chromosome 8 putative open reading frame 44) | SID160744989 | 0.14 | 84.7 | -0.416 | 106 | inactive |
| CEP55 (centrosomal protein 55) | SID160743104 | -0.323 | 75.5 | -0.141 | 87.5 | inactive |
| CEP55 (centrosomal protein 55) | SID160743105 | 0.805 | 97.9 | -0.113 | 113 | inactive |
| CEP55 (centrosomal protein 55) | SID160743106 | -2.06 | 40.8 | -0.258 | 48.9 | inactive |
| MCTS1 (MCTS1 re-initiation and release factor) | SID160731028 | 0.481 | 91.5 | -0.0354 | 103 | inactive |
| MCTS1 (MCTS1 re-initiation and release factor) | SID160738932 | 1.35 | 109 | 1 | 93.4 | inactive |
| MCTS1 (MCTS1 re-initiation and release factor) | SID160738933 | -1.01 | 61.7 | -0.672 | 82.3 | inactive |
| GTF3C6 (general transcription factor IIIC subunit 6) | SID160754703 | 1.41 | 110 | 0.765 | 100 | inactive |
| GTF3C6 (general transcription factor IIIC subunit 6) | SID160754704 | 0.0547 | 83 | -0.0068 | 92.9 | inactive |
| GTF3C6 (general transcription factor IIIC subunit 6) | SID160754706 | -0.648 | 69 | -0.449 | 86.8 | inactive |
| KRTAP4-6 (keratin associated protein 4-6) | SID160751042 | -0.928 | 63.4 | -0.623 | 83.5 | inactive |
| KRTAP4-6 (keratin associated protein 4-6) | SID160751043 | 0.78 | 97.4 | 0.892 | 86.1 | inactive |
| KRTAP4-6 (keratin associated protein 4-6) | SID160751044 | -0.0519 | 80.9 | 0.0535 | 89.1 | inactive |
| MICALL1 (MICAL like 1) | SID160753224 | 0.845 | 98.7 | 0.238 | 104 | inactive |
| MICALL1 (MICAL like 1) | SID160753225 | 1.02 | 102 | 0.52 | 99.5 | inactive |
| MICALL1 (MICAL like 1) | SID160753226 | 0.162 | 85.1 | -0.667 | 113 | inactive |
| JPT1 (Jupiter microtubule associated homolog 1) | SID160740199 | 0.955 | 101 | 1.48 | 76.3 | inactive |
| JPT1 (Jupiter microtubule associated homolog 1) | SID160740201 | 1.24 | 107 | 0.968 | 92.3 | inactive |
| JPT1 (Jupiter microtubule associated homolog 1) | SID160740202 | -0.924 | 63.5 | -1.15 | 96.1 | inactive |
| COLQ | SID160719809 | 0.191 | 85.7 | -0.285 | 103 | inactive |
| COLQ | SID160719810 | 2.18 | 125 | 2.31 | 76.3 | inactive |
| COLQ | SID160719811 | 0.209 | 86 | 1.13 | 71.5 | inactive |
| POC1B (POC1 centriolar protein B) | SID160762733 | -2.04 | 41.2 | -2.47 | 88.4 | inactive |
| POC1B (POC1 centriolar protein B) | SID160762734 | -0.892 | 64.1 | 0.239 | 67.3 | inactive |
| POC1B (POC1 centriolar protein B) | SID160762735 | -0.452 | 72.9 | 0.167 | 78 | inactive |
| CSN3 (casein kappa) | SID160749310 | 0.51 | 92 | 0.362 | 93.5 | inactive |
| CSN3 (casein kappa) | SID160749321 | -0.692 | 68.1 | -0.743 | 92.6 | inactive |
| CSN3 (casein kappa) | SID160749332 | 2.49 | 131 | 1.91 | 88.9 | inactive |
| SPATA21 (spermatogenesis associated 21) | SID160765359 | 1.43 | 110 | 1.92 | 74.4 | inactive |
| SPATA21 (spermatogenesis associated 21) | SID160765360 | -0.858 | 64.8 | -0.471 | 82 | inactive |
| SPATA21 (spermatogenesis associated 21) | SID160765361 | -1.96 | 42.9 | -1.76 | 76.3 | inactive |
| RAB29 (RAB29, member RAS oncogene family) | SID160721166 | -0.0199 | 81.5 | -0.393 | 101 | inactive |
| RAB29 (RAB29, member RAS oncogene family) | SID160721167 | -0.0216 | 81.5 | 0.0327 | 90.2 | inactive |
| RAB29 (RAB29, member RAS oncogene family) | SID160721168 | -0.937 | 63.2 | -1.33 | 100 | inactive |
